PubChem BioAssay AID1259425 – University of Nebraska Medical Center | 2018
Aim: 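Seek colon cancer weak points whose silencing resembles KSR1 loss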 (primary screen). Cells: HCT116 human colon cancer cells. Knock-down reagent: siRNA pool against human genes, 50 nM siRNA. Read-out: 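mRNA of six signature genes measured together by branched-DNA assay after 50 nM siRNA pool, blank removed, divided by geometric mean of two housekeeping genes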. Scale: BNIP3L mRNA: higher = more BNIP3L transcript after knockdown; NDRG1 mRNA: higher = more NDRG1 transcript after knockdown; BNIP3 mRNA: higher = more BNIP3 transcript after knockdown.
In all, the deposit lists about 14,000 reagents; below is an unselected part. A reagent listed more than once was tested more than once; the source does not tell the runs apart. Not all columns of the deposit are shown. Not given: the time to read-out.

BNIP3L mRNA, set 1 | NDRG1 mRNA, set 1 | BNIP3 mRNA, set 1 | gene
0.142 | 0.332 | 0.321 | MAN1A2
0.182 | 0.198 | 0.202 | BIRC7
0.0939 | 0.47 | 0.208 | FEN1
0.0651 | 0.198 | 0.197 | TUBB4B
0.0608 | 0.126 | 0.226 | DCK
0.0872 | 0.244 | 0.4 | LY96
0.111 | 0.149 | 0.239 | XPNPEP1
0.0841 | 0.12 | 0.254 | TLR8
0.0358 | 0.0651 | 0.198 | RPS5
0.0707 | 0.182 | 0.274 | TLR10
0.0575 | 0.118 | 0.15 | PDE11A
0.102 | 0.195 | 0.235 | UBE2Q1
0.0571 | 0.0537 | 0.171 | MYO5A
0.0671 | 0.101 | 0.274 | CNOT4
0.0968 | 0.0918 | 0.336 | ADA
0.172 | 0.403 | 0.362 | ZNF277
0.117 | 0.46 | 0.568 | SLC5A1
0.213 | 0.16 | 0.524 | PTH
0.121 | 0.393 | 0.486 | IGF1R
0.181 | 0.265 | 0.277 | WBSCR23
0.0508 | 0.0735 | 0.229 | G3BP1
0.127 | 0.284 | 0.469 | HEATR1
0.15 | 0.128 | 0.248 | SCO1
0.289 | 0.153 | 0.347 | ADNP2
0.146 | 0.0702 | 0.619 | H4C8
0.17 | 0.316 | 0.466 | KRT33B
0.637 | 1.88 | 0.955 | PLEKHB1
0.11 | 0.405 | 0.267 | PRM1
0.0871 | 0.144 | 0.2 | GPX2
0.0911 | 0.372 | 0.346 | PPP1R10
0.19 | 0.29 | 0.308 | RGS16
0.0855 | 0.432 | 0.428 | TTBK2
0.107 | 0.576 | 0.187 | UCN
0.23 | 1.37 | 0.451 | C3orf18
0.138 | 0.269 | 0.39 | UTP25
0.0766 | 0.197 | 0.314 | BCR
0.0855 | 0.0649 | 0.286 | PLA2G7
0.0733 | 0.091 | 0.285 | NSMAF
0.251 | 0.278 | 0.84 | FSHR
0.148 | 0.0868 | 0.362 | IGFBP7
0.15 | 0.179 | 0.239 | ZFAND5
0.0692 | 0.294 | 0.336 | POM121L9P

Entries above whose target name begins with A or a:
BNIP3L mRNA, set 1 | NDRG1 mRNA, set 1 | BNIP3 mRNA, set 1 | gene
0.0968 | 0.0918 | 0.336 | ADA
0.289 | 0.153 | 0.347 | ADNP2

The results go on:
BNIP3L mRNA, set 1 | NDRG1 mRNA, set 1 | BNIP3 mRNA, set 1 | gene
0.0597 | 0.627 | 0.483 | CCL2
0.135 | 0.583 | 0.325 | CCL2
0.11 | 0.282 | 0.362 | RRM1
0.113 | 0.158 | 0.234 | GINS4
0.109 | 0.203 | 0.332 | SLC5A6
0.137 | 0.229 | 0.295 | TUT4
0.0924 | 0.298 | 0.313 | TMEM97
0.0637 | 0.262 | 0.221 | FYB1
0.0867 | 0.248 | 0.276 | FSTL5
0.104 | 0.145 | 0.356 | MED9
0.0858 | 0.248 | 0.258 | C1orf35
0.0948 | 0.11 | 0.361 | OR2C3
0.104 | 0.163 | 0.257 | MAPRE1
0.0827 | 0.2 | 0.19 | UBFD1
0.183 | 0.342 | 0.495 | HPGD
0.112 | 0.233 | 0.421 | BUB1B
0.0855 | 0.117 | 0.287 | DEFB103B
0.083 | 0.108 | 0.288 | UBR1
0.0772 | 0.12 | 0.189 | RGL1
0.106 | 0.113 | 0.408 | CEP68
0.0741 | 0.738 | 0.258 | MIA2
